From PubChem BioAssay (NCATS)
Inconclusive results, whose numbers are uncertain, are shown with a selection of clear calls. Potencies beside an inconclusive call are fits to weak or partial responses and may not hold up. The source made the active and inactive calls. The call rests on the fitted dose curve; in most records, active means well fitted cell-killing curve with a large enough effect; inconclusive means small, poorly fitted or top-dose-only effect; inactive means flat fitted curve, though single readings scatter.

Test: Identifying Small Molecule Inhibitors of Pancreatic Cancer Stem Cells (A278, Adherent) (AID 1259361);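 further: viability read after 48 h compound exposure; nearly all actives have a fitted effect of over 35% in size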;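 on viability (% of control): 100% = DMSO-treated cells and 0% = cell-free media-only wells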
Details: series mostly up to 46.1 µM; viability (% of control): at the top concentration
Text: Progenitor-like cancer cells, often referred to as cancer stem cells (CSC), are believed to be the drivers of therapeutic resistance and rapid recurrence. CSCs are postulated to reside in specific niches characterized by low oxygen tension, limited nutrient supply, and high redox load. Selectively targeting CSC, alone or in combination with cytotoxic agents, as a means to produce durable remissions is an appealing concept. Modeling these cells in in vitro setting is an important step in finding new therapies and/or targets. Multiple reports highlight that forcing cells in culture into 3-dimensionaly architectures (spheroids) re-establishes key progenitor-like transcriptional signatures. Pancreatic cancer is among the diseases with the most dismal outlook which is driven, largely, by recurance following front-line therapies. […] In hopes of deriving new insight into the targeting of these pancreatic CSCs we examined three established pancreatic cancer cell lines in cytotoxicity assays versus a collection of approved and investigational drugs. Importantly, we screened these lines as traditional monolayer (2D) and spheroid (3D) formats to gain an appreciation of agents with differential activity.
Multicellular tumor spheroids from Panc1, MiaPaCa-2, and the primary low-passage tissue culture line SB.06 were seeded in stem cell media (SCM) in nonadherent 6-well plates coated with hydrogel (Corning Life Sciences, Chelmsford, Mass) and pancreatic spheres generated for 14 days before screening. Cells were seeded into 1536-well solid-bottom white tissue culture treated Greiner Bio One Plates (789173-F) using a MultiDrop Combi (Thermofisher Scientific) dispenser and a small sterile cassette. One column was media alone to be used as a :"no cells" control. The plates were then covered with sterilized stainless steel gasketed lids from Kalypsys. After allowing cells to attach for 4 hours, 23 nL of test compound or control (negative control DMSO and positive control 9.2 uM Bortezomib-final) were added from a 1536-well polypropylene compound source plate to each well using a 1536 head pin tool from Kalypsys. Cells were then incubated for 48 hours at 37C, 95% relative humidity and 5% CO2. After 48 hours, plates were removed from the incubator and 3 uL of CellTiter-Glo (Promega) was added using an Aurora Flying Reagent Dispenser Bioraptor. Plates were incubated at room temperature for 10 minutes prior to reading the luminescence on the Viewlux (PerkinElmer). The relative luciferase units are used to calculate the percent activity using the activity of DMSO in the cells and no cells columns for normalization of no inhibition and full inhibition respectively.

| Structure (SMILES) | IC50 (viability decrease) | viability (% of control) |
| --- | --- | --- |
| Cc1nc2cnc3ccc(C#Cc4cccnc4)cc3c2n1-c1ccc(C(C)(C)C#N)cc1 | active: 0.187 µM | – |
| COc1ccc(-c2ccc3c(N4CCOCC4)nc(N4C[C@@H](C)O[C@@H](C)C4)nc3n2)cc1CO | inconclusive: 0.264 µM [cytotoxic, full curve] | – |
| CC(C)C[C@H](NC(=O)[C@@H](O)[C@H](N)Cc1ccccc1)C(=O)O | – | inactive: 98.2 |
| Cc1ccc(C(=O)Nc2cccc(C(F)(F)F)c2)cc1-c1ccc2nc(NCCN3CCOCC3)ncc2c1 | active: 2.64 µM | – |
| CC(C)C[C@H](NC(=O)[C@H](Cc1ccccc1)NC(=O)c1cnccn1)B(O)O | active: 0.0037 µM | – |
| Cc1c(C)c2c(c(C)c1O)CCC(C)(COc1ccc(CC3SC(=O)NC3=O)cc1)O2 (centres undefined) | inconclusive: 33.2 µM [cytotoxic, single point] | – |
| C#Cc1cccc(Nc2ncnc3cc(OCCOC)c(OCCOC)cc23)c1 | active: 7.43 µM | – |
| COC(=O)c1ccc2c(C(=Nc3ccc(N(C)C(=O)CN4CCN(C)CC4)cc3)c3ccccc3)c(O)[nH]c2c1 | active: 4.69 µM | – |
| C[C@@H](Oc1cc(-c2cnn(C3CCNCC3)c2)cnc1N)c1c(Cl)ccc(F)c1Cl | active: 4.18 µM | – |
| CCOc1cc(N2CCC(O)CC2)ccc1Nc1ncc2c(n1)N(C)c1ccccc1C(=O)N2C | inconclusive: 23.5 µM [cytotoxic, partial curve] | – |
| C[C@@H](N)C1CCC(C(=O)Nc2ccncc2)CC1 (some centres undefined) | – | inactive: 92.7 |
| CCN1CCN(Cc2ccc(-c3cc4c(N[C@H](C)c5ccccc5)ncnc4[nH]3)cc2)CC1 | inconclusive: 29.6 µM [cytotoxic, single point] | – |
| Cc1nn(Cc2ccccc2Cl)c(C)c1CN(C)CC(O)COc1ccc(Cl)cc1 (centres undefined) | inconclusive: 23.5 µM [cytotoxic, single point] | – |
| Cc1cc(SCc2sc(-c3ccc(C(F)(F)F)cc3)nc2C)ccc1OCC(=O)O | inconclusive: 0.0037 µM [rising, full curve, poor fit] | – |
| CCCCc1nc2cc(C=CC(=O)NO)ccc2n1CCN(CC)CC | active: 1.18 µM | – |
| Cc1cc([C@@H](C)Nc2ccccc2C(=O)O)c2nc(N3CCOCC3)cc(=O)n2c1 | inconclusive: 9.35 µM [cytotoxic, partial curve] | – |
| CCc1cc(Nc2nccc(-c3c(-c4ccc(OC)c(C(=O)Nc5c(F)cccc5F)c4)nc4ccccn34)n2)c(OC)cc1N1CCC(N2CCN(S(C)(=O)=O)CC2)CC1 | – | inactive: 90.3 |
| CS(=O)(=O)c1ccc(C(=O)Nc2ccc(Cl)c(-c3ccccn3)c2)c(Cl)c1 | inconclusive: 0.0187 µM [rising, full curve, poor fit] | – |
| N#Cc1c(O)c2c(-c3ccc(-c4ccccc4O)cc3)csc2[nH]c1=O | – | inactive: 121 |
| OCCn1cc(-c2cnc3nnn(Cc4ccc5ncccc5c4)c3n2)cn1 | inconclusive: 11.8 µM [cytotoxic, partial curve, poor fit] | – |
| CC[C@@]1(O)C(=O)OCc2c1cc1n(c2=O)Cc2cc3c(CN(C)C)c(O)ccc3nc2-1 | inconclusive: 0.0833 µM [cytotoxic, full curve] | – |
| COc1ccc2c3n(c(=NC(=O)c4cccnc4)nc2c1OC)CCN3 | inconclusive: 1.66 µM [cytotoxic, full curve] | – |
| CCn1c(-c2nonc2N)nc2cnc(Oc3cccc(NC(=O)c4ccc(OCCN5CCOCC5)cc4)c3)cc21 | inconclusive: 1.87 µM [cytotoxic, partial curve] | – |
| CCOc1cc(C=C2C(=O)N(c3ccccc3)N=C2C)cc(Cl)c1OCC(=O)OC | inconclusive: 8.33 µM [cytotoxic, partial curve, poor fit] | – |
| Clc1ccc(Nc2nnc(Cc3ccncc3)c3ccccc23)cc1 | – | inactive: 86.7 |
| O=C(c1cc(Cc2n[nH]c(=O)c3ccccc23)ccc1F)N1CCN(C(=O)C2CC2)CC1 | inconclusive: 16.6 µM [cytotoxic, partial curve] | – |
| CC1(CN2CCC(n3c(=O)[nH]c4ccccc43)CC2)OCc2ccccc2-n2cccc21 (centres undefined) | inconclusive: 37.2 µM [cytotoxic, single point] | – |
| Cc1ccc(S(=O)(=O)Nc2cc(Cl)ccc2C(=O)Nc2nc(-c3ccccc3)cs2)cc1 | active: 3.72 µM | – |
| Cc1cnc(Nc2ccc(F)cc2Cl)nc1-c1c[nH]c(C(=O)N[C@H](CO)c2cccc(Cl)c2)c1 | active: 11.8 µM | – |

By substructure, the entries above containing a COOH group

| Structure (SMILES) | IC50 (viability decrease) | viability (% of control) |
| --- | --- | --- |
| CC(C)C[C@H](NC(=O)[C@@H](O)[C@H](N)Cc1ccccc1)C(=O)O | – | inactive: 98.2 |
| Cc1cc(SCc2sc(-c3ccc(C(F)(F)F)cc3)nc2C)ccc1OCC(=O)O | inconclusive: 0.0037 µM [rising, full curve, poor fit] | – |
| Cc1cc([C@@H](C)Nc2ccccc2C(=O)O)c2nc(N3CCOCC3)cc(=O)n2c1 | inconclusive: 9.35 µM [cytotoxic, partial curve] | – |
